# Assay results reported in PubChem BioAssay AID2685 (National Center for Advancing Translational Sciences (NCATS), 2010).
# The list shows a part of the results. Shown are side measurements of this screen, not its main read-out; they come without a call. Compounds called inactive in the main read-out are mostly missing here. The note in brackets gives the kind of curve behind each potency; many fits are weak.
# Assay: qHTS Assay for Lipid Storage Modulators in Drosophila S3 Cells;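 on cell number change: cells counted by Cell Tracker Red CMTPX staining in the red channel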
# Conditions: BODIPY lipid droplet fluorescence, 18-24 h; for cell number change: measured here: cell count max response, cells fed with added oleic acid
# Method in brief: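 Laser-scanning cytometry quantifies lipid droplet accumulation (500–530 nm total intensity; droplet/cell object ratio) in oleic acid-fed (400 uM added) Drosophila S3 cells treated with a concentration series. 20 uM Triacsin C defined 100% inhibition.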
# [1] = measured here: cell number channel AC50, cells fed with added oleic acid
# [2] = measured here: lipid fluorescence (Fed channel) AC50, cells fed with added oleic acid
SMILES,cell number change [%],AC50 [1],AC50 [2]
COc1ccc(CNc2ccc(S(=O)(=O)N3CCN(C)CC3)cn2)cc1OC,-42.7,"0.164 µM [falling, full curve]","0.231 µM [falling, full curve]"
CCN(CC)CCNC(=O)Cn1nc(-c2ccccc2)c2ccccc2c1=O,-20.3,"0.13 µM [falling, full curve, poor fit]","3.66 µM [falling, full curve]"
COCCCNC(=O)CSC1=Nc2ccccc2C2=NC(CC(=O)NCc3ccccc3)C(=O)N12 (stereo not given),-26.6,–,"29.1 µM [falling, single point]"
COCC(C)n1c(SCC(=O)NCCC2=CCCCC2)nc2ccccc2c1=O (stereo not given),30,–,"0.259 µM [falling, partial curve, poor fit]"
Cc1ccsc1C(=O)Nc1ccc(F)c([N+](=O)[O-])c1,59.4,"29.1 µM [rising, partial curve, poor fit]",–
Cc1cc(C(=O)NCCN2CCOCC2)ccc1[N+](=O)[O-],-7.8,–,–
O=C(c1ccccc1Cl)N1CCC(n2cccc2)CC1,21.3,"0.259 µM [falling, full curve]","0.231 µM [falling, full curve]"
COc1ccc(N2C(=O)C3CCCN3C2c2ccc(C)o2)cc1 (stereo not given),25.9,–,"2.06 µM [rising, partial curve, poor fit]"
Cc1ccc(NC(=O)/C=C/c2cccs2)c([N+](=O)[O-])c1,-1.67,"6.51 µM [falling, single point]","6.51 µM [falling, single point]"
CCCCCCCCCOC(=O)C(CC(=O)O)N1CCOCC1 (stereo not given),29,–,"0.58 µM [falling, single point]"
CCNCCC(=O)N1c2ccccc2Sc2ccc(C(F)(F)F)cc21,-1.82,–,–
COc1ccc(CNC(=O)C/C(C)=N/NC(=O)c2ccc(OC)cc2OC)cc1,-5.71,–,"29.1 µM [rising, single point]"
CCOc1ccc(CSC2=NCCN2)cc1Cl,-20.7,"3.66 µM [falling, partial curve]",–
Cc1cccc(Oc2ccc(S(=O)(=O)N3CCCCC3)cc2N)c1,56.6,"8.2 µM [rising, partial curve]",–
CSc1nc(O)c(C(c2cccc([N+](=O)[O-])c2)c2c(O)nc(SC)[nH]c2=O)c(=O)[nH]1,-52,"25.9 µM [falling, partial curve]","29.1 µM [falling, single point]"
Cc1c(NC(=O)CSc2nnnn2-c2ccc(O)cc2)c(=O)n(-c2ccccc2)n1C,9.93,–,"2.31 µM [falling, partial curve]"

# At a glance, two of the compounds above:
SMILES,cell number change [%],AC50 [1],AC50 [2]
CCN(CC)CCNC(=O)Cn1nc(-c2ccccc2)c2ccccc2c1=O,-20.3,"0.13 µM [falling, full curve, poor fit]","3.66 µM [falling, full curve]"
COCCCNC(=O)CSC1=Nc2ccccc2C2=NC(CC(=O)NCc3ccccc3)C(=O)N12 (stereo not given),-26.6,–,"29.1 µM [falling, single point]"
